Assay results reported in publication doi:10.1101/2025.09.04.673968.

Chains of the proteins cited; added tags and fusions are not shown.
UniProt Q04781: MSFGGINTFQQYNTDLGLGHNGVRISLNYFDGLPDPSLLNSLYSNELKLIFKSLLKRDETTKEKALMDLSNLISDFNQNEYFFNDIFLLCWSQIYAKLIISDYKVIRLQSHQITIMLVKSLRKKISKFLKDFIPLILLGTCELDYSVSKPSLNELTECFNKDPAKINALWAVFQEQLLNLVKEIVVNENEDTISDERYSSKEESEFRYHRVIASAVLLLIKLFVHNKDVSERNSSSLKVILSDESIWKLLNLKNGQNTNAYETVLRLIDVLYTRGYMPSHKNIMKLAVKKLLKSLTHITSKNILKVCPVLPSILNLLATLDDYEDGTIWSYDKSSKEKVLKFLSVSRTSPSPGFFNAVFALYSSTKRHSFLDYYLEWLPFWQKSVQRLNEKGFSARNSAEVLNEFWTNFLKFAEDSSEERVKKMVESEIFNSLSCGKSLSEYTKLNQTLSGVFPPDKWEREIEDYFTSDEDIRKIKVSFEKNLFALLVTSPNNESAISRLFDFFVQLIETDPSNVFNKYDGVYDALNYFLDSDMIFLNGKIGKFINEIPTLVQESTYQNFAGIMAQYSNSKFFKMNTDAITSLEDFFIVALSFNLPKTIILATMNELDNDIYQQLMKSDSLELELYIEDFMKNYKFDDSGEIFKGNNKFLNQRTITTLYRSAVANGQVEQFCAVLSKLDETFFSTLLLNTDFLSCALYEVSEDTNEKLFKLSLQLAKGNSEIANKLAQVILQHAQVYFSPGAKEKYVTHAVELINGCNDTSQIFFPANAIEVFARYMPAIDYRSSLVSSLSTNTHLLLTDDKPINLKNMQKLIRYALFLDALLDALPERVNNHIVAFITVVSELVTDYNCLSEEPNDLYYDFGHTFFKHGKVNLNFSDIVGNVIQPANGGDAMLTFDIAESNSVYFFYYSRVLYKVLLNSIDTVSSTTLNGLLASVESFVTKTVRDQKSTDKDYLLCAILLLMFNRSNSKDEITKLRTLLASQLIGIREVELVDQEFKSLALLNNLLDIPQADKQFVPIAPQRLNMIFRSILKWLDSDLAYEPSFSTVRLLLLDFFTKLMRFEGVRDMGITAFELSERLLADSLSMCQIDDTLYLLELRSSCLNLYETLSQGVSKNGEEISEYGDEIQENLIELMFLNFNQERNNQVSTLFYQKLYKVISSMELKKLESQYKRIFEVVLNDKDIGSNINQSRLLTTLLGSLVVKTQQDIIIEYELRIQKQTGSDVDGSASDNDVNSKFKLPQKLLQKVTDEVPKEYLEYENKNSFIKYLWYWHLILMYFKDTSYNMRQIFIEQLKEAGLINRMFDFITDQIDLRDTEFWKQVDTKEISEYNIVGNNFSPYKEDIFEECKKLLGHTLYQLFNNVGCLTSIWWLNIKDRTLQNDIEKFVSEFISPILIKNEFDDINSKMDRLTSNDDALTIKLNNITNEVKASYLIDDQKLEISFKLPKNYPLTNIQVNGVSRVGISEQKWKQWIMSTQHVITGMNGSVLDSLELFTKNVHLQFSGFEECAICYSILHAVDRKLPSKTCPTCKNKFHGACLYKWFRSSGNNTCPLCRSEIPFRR
UniProt Q12532: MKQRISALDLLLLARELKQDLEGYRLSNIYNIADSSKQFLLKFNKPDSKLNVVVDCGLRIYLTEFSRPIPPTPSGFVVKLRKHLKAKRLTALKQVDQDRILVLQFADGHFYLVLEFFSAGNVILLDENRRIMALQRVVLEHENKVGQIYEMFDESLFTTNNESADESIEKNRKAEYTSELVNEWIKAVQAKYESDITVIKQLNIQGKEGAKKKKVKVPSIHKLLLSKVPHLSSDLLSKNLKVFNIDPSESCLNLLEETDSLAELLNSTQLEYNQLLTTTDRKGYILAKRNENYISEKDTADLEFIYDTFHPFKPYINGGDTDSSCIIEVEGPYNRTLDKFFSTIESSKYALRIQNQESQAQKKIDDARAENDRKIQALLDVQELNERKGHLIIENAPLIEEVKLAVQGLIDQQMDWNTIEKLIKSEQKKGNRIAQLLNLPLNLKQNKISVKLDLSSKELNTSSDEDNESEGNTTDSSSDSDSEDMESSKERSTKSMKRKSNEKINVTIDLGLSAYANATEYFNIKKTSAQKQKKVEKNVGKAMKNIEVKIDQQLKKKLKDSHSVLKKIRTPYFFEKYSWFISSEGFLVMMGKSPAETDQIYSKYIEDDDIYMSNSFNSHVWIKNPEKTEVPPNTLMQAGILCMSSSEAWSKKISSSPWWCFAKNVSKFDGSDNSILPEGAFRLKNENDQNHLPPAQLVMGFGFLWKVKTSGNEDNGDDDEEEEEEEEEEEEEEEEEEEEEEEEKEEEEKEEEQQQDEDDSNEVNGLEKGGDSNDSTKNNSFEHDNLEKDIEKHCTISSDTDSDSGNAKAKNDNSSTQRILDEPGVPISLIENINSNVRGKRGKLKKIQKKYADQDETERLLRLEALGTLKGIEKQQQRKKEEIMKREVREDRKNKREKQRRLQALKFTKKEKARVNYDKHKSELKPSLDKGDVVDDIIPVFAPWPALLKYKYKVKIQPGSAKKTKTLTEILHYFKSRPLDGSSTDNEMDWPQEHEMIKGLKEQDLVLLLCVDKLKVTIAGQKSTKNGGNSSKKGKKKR

T1: Jlp2-FLAG (S. cerevisiae) (UniProt P40206)
T1 sequence: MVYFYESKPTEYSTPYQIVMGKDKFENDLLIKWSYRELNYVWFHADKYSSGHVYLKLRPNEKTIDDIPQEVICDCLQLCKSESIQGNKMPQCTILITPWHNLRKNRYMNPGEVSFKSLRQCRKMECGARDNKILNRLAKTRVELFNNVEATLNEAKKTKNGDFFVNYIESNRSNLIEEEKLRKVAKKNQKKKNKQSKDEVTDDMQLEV

B1: Vms1 (enzyme, UniProt Q04311 1-632)
chain: MNSQKASKMTGSLKKNDLYIFDLSEQLLNSLKLMSFDSTLREVEVEKTSDNDRNKESGDLQIARKKVTSNVMRCSVCQMSFDSRNEQKAHYQTDYHLMNVKRNLRGLDILSVEEFDALISKEHGIKSEDENSGGEQTSSDHEESEEASDRDPDLQTNNYMETIIENDLQKLGFQKDESDAISHINTQSPYIYFKSKYLQKNEVLAIYKSLFNKRSLSNPNEALTFWNSQENPMAISALFMVGGGHFAGAIVSHQRLNVKGNAHKKDETLIEQAVNFLEHKTFHRYTTRRKQGGSQSAMDNAKGKANSAGSALRRYNESALKTDIQGVLKDWEPYLSKCDNIFIRARNVSDKKIFTDNTVLNKGDERIKSFPFTTNRPTVLELKKAWCELSYLKILPKPEPLAVKETVQKLEVSNKKDEFKEKQEPLLEEIQTEEIISLLKKGRAPLLISFLKKNKLDGNFRLKPESKYSLTPTMLHYASQQGMKQMALILLSNIKCDPTIKNRLGRTAWDLNRNDDVRHAFQIARYNLGESFTNWDETHIGQPLSREQVDEINEKKKAIENEKAEKLIKLELEAAKEKQRFAKDAERGPGKKLTNIPSIQQQNLNSLTDEQRRRLMREQRARAAEERMKKKY
B2: Pth2 (enzyme, UniProt P34222 1-208)
chain: MEKMTVSSNYTIALWATFTAISFAVGYQLGTSNASSTKKSSATLLRSKEMKEGKLHNDTDEEESESEDESDEDEDIESTSLNDIPGEVRMALVIRQDLGMTKGKIAAQCCHAALSCFRHIATNPARASYNPIMTQRWLNAGQAKITLKCPDKFTMDELYAKAISLGVNAAVIHDAGRTQIAAGSATVLGLGPAPKAVLDQITGDLKLY
B3: peptidyl-tRNA hydrolase Pth1 (enzyme, UniProt P38876 1-190)
chain: MSGKWRLVLTGIGNPEPQYAGTRHNVGLYMLELLRKRLGLQGRTYSPVPNTGGKVHYIEDEHCTILRSDGQYMNLSGEQVCKVWARYAKYQARHVVIHDELSVACGKVQLRAPSTSIRGHNGLRSLLKCSGGRVPFAKLAIGIGREPGSRSRDPASVSRWVLGALTPQELQTLLTQSEPAAWRALTQYIS
B4: Rqc1 (protein, UniProt Q05468 1-723)
chain: MSSRALRRLQDDNALLESLLSNSNANKMTSGKSTAGNIQKRENIFSMMNNVRDSDNSTDEGQMSEQDEEAAAAGERDTQSNGQPKRITLASKSSRRKKNKKAKRKQKNHTAEAAKDKGSDDDDDDEEFDKIIQQFKKTDILKYGKTKNDDTNEEGFFTASEPEEASSQPWKSFLSLESDPGFTKFPISCLRHSCKFFQNDFKKLDPHTEFKLLFDDISPESLEDIDSMTSTPVSPQQLKQIQRLKRLIRNWGGKDHRLAPNGPGMHPQHLKFTKIRDDWIPTQRGELSMKLLSSDDLLDWQLWERPLDWKDVIQNDVSQWQKFISFYKFEPLNSDLSKKSMMDFYLSVIVHPDHEALINLISSKFPYHVPGLLQVALIFIRQGDRSNTNGLLQRALFVFDRALKANIIFDSLNCQLPYIYFFNRQFYLAIFRYIQSLAQRGVIGTASEWTKVLWSLSPLEDPLGCRYFLDHYFLLNNDYQYIIELSNSPLMNCYKQWNTLGFSLAVVLSFLRINEMSSARNALLKAFKHHPLQLSELFKEKLLGDHALTKDLSIDGHSAENLELKAYMARFPLLWNRNEEVTFLHDEMSSILQDYHRGNVTIDSNDGQDHNNINNLQSPFFIAGIPINLLRFAILSEESSVMAAIPSFIWSDNEVYEFDVLPPMPTSKESIEVVENIKTFINEKDLAVLQAERMQDEDLLNQIRQISLQQYIHENEESNENEG
B5: Pro1 (protein, UniProt P32264 1-428)
chain: MKDANESKSYTIVIKLGSSSLVDEKTKEPKLAIMSLIVETVVKLRRMGHKVIIVSSGGIAVGLRTMRMNKRPKHLAEVQAIAAIGQGRLIGRWDLLFSQFDQRIAQILLTRNDILDWTQYKNAQNTINELLNMGVIPIVNENDTLSVREIKFGDNDTLSAITSALIHADYLFLLTDVDCLYTDNPRTNPDAMPILVVPDLSKGLPGVNTAGGSGSDVGTGGMETKLVAADLATNAGVHTLIMKSDTPANIGRIVEYMQTLELDDENKVKQAYNGDLTDLQKREFEKLKALNVPLHTKFIANDNKHHLKNREFWILHGLVSKGAVVIDQGAYAALTRKNKAGLLPAGVIDVQGTFHELECVDIKVGKKLPDGTLDPDFPLQTVGKARCNYTSSELTKIKGLHSDQIEEELGYNDSEYVAHRENLAFPPR
B6: Arb1 (protein, UniProt P40024 1-610)
chain: MPPVSASKAKRDAKKAEREAKKAAAGKTIRKLGRKKEAAAEESEVDAAAREIKMMKLQQDKDGLSDRVVTGVLSSLETSRDIKLSSVSLLFHGKVLIQDSGLELNYGRRYGLLGENGCGKSTFLKALATREYPIPEHIDIYLLDEPAEPSELSALDYVVTEAQHELKRIEDLVEKTILEDGPESELLEPLYERMDSLDPDTFESRAAIILIGLGFNKKTILKKTKDMSGGWKMRVALAKALFVKPTLLLLDDPTAHLDLEACVWLEEYLKRFDRTLVLVSHSQDFLNGVCTNMIDMRAQKLTAYGGNYDSYHKTRSELETNQMKQYNKQQEEIQHIKKFIASAGTYANLVKQAKSRQKILDKMEADGLVQPVVPDKVFSFRFPQVERLPPPVLAFDDISFHYESNPSENLYEHLNFGVDMDSRIALVGPNGVGKSTLLKIMTGELTPQSGRVSRHTHVKLGVYSQHSQDQLDLTKSALEFVRDKYSNISQDFQFWRGQLGRYGLTGEGQTVQMATLSEGQRSRVVFALLALEQPNVLLLDEPTNGLDIPTIDSLADAINEFNGGVVVVSHDFRLLDKIAQDIFVVENKTATRWDGSILQYKNKLAKNVVL
B7: Yhr033w (protein, UniProt P38690 1-423)
chain: MTKAYTIVIKLGSSSLVDESTKEPKLSIMTLIVETVTNLKRMGHKVIIVSSGGIAVGLDALNIPHKPKQLSEVQAIAAVGQGRLIARWNMLFSQYGEQTAQILLTRNDILRWNQYNNARNTINELLAMGVIPIVNENDTLSISEIEFGDNDTLSAITAALVGADFLFLLTDVDCLYTDNPRTNPDARPIVLVPELSEGLPGVNTSSGSGSEVGTGGMRTKLIAADLASNAGIETIVMKSDRPEYVPKIVDYIQHHFRPPRHIGNGTQQQFLDLQDTELEQLRRYDVPMHTKFLANDNKHKLKNREFWILHGLITKGAIIIDENSYDKLLSKDMASLTPNAVIEVRDNFHELECVDLKIGQRLPNGELDISKPIQSVGCVRSNYTSLELAKIKGLPSEKIHDVLGYSVSEYVAHRENIAFPPQF

target: T1, Jlp2-FLAG (S. cerevisiae); assay: affinity purification with mass spectrometry

binding	Molecule
no binding	Ltn1 (from UniProt Q04781 1-1562) (enzyme)
no binding	Rqc2 (from UniProt Q12532 1-1038)
binds	B1
no binding	B2
binds	B3
no binding	B4
binds	B5
no binding	B6
binds	B7

No constants are given. Whether binding was seen depends on the method and setting. Binding seen in cells or lysates may run through a third protein. Here binding means that the protein was enriched with, or labelled near, the bait; the list need not be complete. A no says only that the protein was not detected with the bait. Where a sequence is shown, tags or fusion partners need not be part of it.
